Data taken from PubChem BioAssay AID638 (SRMLSC, 2007).
Out of some 1,300 compounds screened, about 65 (5%) were called active.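 Rule for the calls: active = growth inhibition reaching a set limit at one or more tested doses; inactive = the rest.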 Some of the results follow. Results with a measured potency or affinity are listed apart.

Experiment: growth inhibition of wild-type E. coli, dose response, BW25113 wild type, OD615 (AID 638)
Details: at 100 µM (top of the series) unless noted
How it was run: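 Assay system: E. coli BW25113 wild type; buffer or medium: Kanamycin-supplemented LB broth; signal: optical density (absorbance) at 615 nm; controls: chloramphenicol 30 µM control; doses: compound concentration series; times: bacterial exposure to compound 20 h at 37 °C; evaluation: IC50 from 4-parameter logistic, bounds fixed 0–100%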

Growth inhibition, inactive:
O=C(Nc1nc(-c2ccccn2)cs1)c1ccc(Cl)s1 2.27% [at 50 µM]
Cc1ccc(-c2nnc3sc(CCc4ccccc4)nn23)cc1 9.95%
COc1ccccc1C(=O)Nc1nnc(-c2ccc3c(c2)CCCC3)o1 2.77%
CCCCCSc1nnc(-c2cc(Br)ccc2N)c(=O)[nH]1 -4.38%
O=S(=O)(Nc1cccc2ncccc12)c1cccs1 2.77%
Oc1ccc(Cl)cc1-c1cc(-c2ccccc2)n[nH]1 12%
COC(=O)c1ccc(O)c(Sc2cc(C(=O)OC)ccc2O)c1 18.2% [at 50 µM]
CCCCCn1c(SCCC(C)C)nc2c1c(=O)[nH]c(=O)n2C -3.56%
Cc1ccc(-c2nnn(CC(=O)N(Cc3ccco3)C(C(=O)NC(C)(C)C)c3cccs3)n2)o1 (stereo not drawn) 1.45%
CCOC(=O)c1cnc(-n2nc(C)cc2C)nc1NCc1ccccc1 2.47%
Cc1oc2c(CN3CCOCC3)c(O)ccc2c(=O)c1-c1ccc(Br)cc1 0.4%
CCCCCCn1c(CN2CCCC(C)C2)nc2c1c(=O)n(C)c(=O)n2C (stereo not drawn) -5.27%
CCn1c(C(=O)NCCCc2ccccc2)cc2sccc21 2.23%
CC1CN(c2oc(COc3ccc(Cl)cc3Cl)nc2C#N)CC(C)O1 (stereo not drawn) -6.32%
O=C(c1ccc2c(=O)n(C3CCCC3)c(=S)[nH]c2c1)N1CCN(C2CCCCC2)CC1 12.5%
COc1ccc(OC)c(S(=O)(=O)n2cnc3cc(C)c(C)cc32)c1 -5.06%
CC(=O)c1sc(NC(=O)C2(F)C(F)(F)C(F)(F)C(F)(F)C(F)(F)C2(F)F)nc1C 15.7%
O=C1NC(Nc2nc3ccccc3s2)(C(F)(F)F)C(=O)N1C1CCCCC1 (stereo not drawn) -4.49%
Cc1ccc(-c2noc(CN3CCN(c4ccccc4F)CC3)n2)cc1 -1.59%
N#Cc1nc(Cc2cccc3ccccc23)oc1NCCCn1ccnc1 2.47%
c1csc(-c2noc(COc3ccc4c(c3)CCCC4)n2)c1 14.2%
Cc1cc(NS(=O)(=O)c2ccc(NC(=O)COc3ccccc3C(C)C)cc2)no1 2.63%
CCCOc1ccc2c3c(c(=O)oc2c1OCCC)CCC3 3.86%
O=C(CSc1nc(O)c(C2CCCCC2)c(=O)[nH]1)Nc1ccc(Cl)cc1 2.12%
CC(OC(=O)c1ccccc1NCc1ccco1)C(=O)Nc1ncc(Cl)cc1Cl (stereo not drawn) 11.2%
Cn1c(=O)c2c(nc(N3CCCCCC3)n2Cc2cccc3ccccc23)n(C)c1=O -1.26%
Cn1c(=O)c2c(SCc3cccnc3)nc(CC(C)(C)C)nc2n(C)c1=O 1.92%
FC(F)(F)c1cccc(N2CCN(c3nnnn3-c3ccccc3)CC2)c1 -6.58%
Cc1cccc(C(C)(C)C)c1OCCn1ccnc1 18.9%
O=C(Nc1ccc(CN2CCOCC2)cc1)c1ccc(-c2ccc(Br)cc2)o1 1.12%
Cc1cc(C)c(C#N)c(SCS(=O)c2ccc(C(C)(C)C)cc2)n1 (stereo not drawn) 5.36%
COc1ccccc1-c1cc(C(=O)NCc2ccc(F)cc2)no1 -0.01%
COc1ccc(NC(=O)c2cc(-c3cc(C)cc(C)c3O)n[nH]2)cc1Cl -4.57%
CCN(c1ccccc1)S(=O)(=O)c1ccc(NCC2COc3ccccc3O2)nc1 (stereo not drawn) -13.3%
CCCCc1c(C)nn(-c2nnc3c4ccccc4n(CC)c3n2)c1C -6.59%
O=S(=O)(Nc1ccc(S(=O)(=O)N2CCCCC2)cc1)c1ccc(Br)s1 -0.13%
Cc1cccc(NC(=O)c2cc3n(n2)C(C(F)(F)F)CC(c2ccc4c(c2)OCO4)N3)c1 (stereo not drawn) -11.5%
Brc1ccccc1Cn1c(-c2cncs2)nc2ccccc21 6.72%
CCn1c(=O)c(C(=O)Nn2c(C)nc3ccccc3c2=O)c(O)c2ccccc21 2.63%
COc1ccc(-c2nnc(SCc3cc(C)cc(C)c3)o2)cc1 -1.05%
O=C(CN(C(=O)CNC(=O)c1ccco1)c1ccc(Cl)c(Cl)c1)NC1CCCCC1 5.13%
CCOC(=O)c1ccc(N2C(=O)c3n[nH]c(C)c3C2c2ccc(OC)cc2OC)cc1 (stereo not drawn) 3.29%
O=C(CNCCC1=CCCCC1)Nc1ccccc1N1CCCCC1 9.23%
O=C1c2[nH]nc(-c3ccccc3O)c2C(c2ccccc2)N1Cc1ccco1 (stereo not drawn) 5.54%
N#CC1=C(N)SC(N)=C(C#N)C1CCC1CCCCC1 8.16%
C(=C\c1ccccc1)/CN1CCN(c2ncnc3c2oc2ccccc23)CC1 -1.65%
O=S(=O)(Nc1cc(Cl)ccc1N1CCCCC1)c1cccs1 5.8%
Cc1noc(NS(=O)(=O)c2ccc(NC(=O)COc3ccc(Cl)cc3Cl)cc2)c1C 4.82%
N#Cc1c(NC(=O)c2ccc(Br)o2)n(-c2ccccc2)c2nc3ccccc3nc12 -13.4%
CCOc1ccc2[nH]c3c(N4CCN(c5ccccn5)CC4)ncnc3c2c1 -8.17%
Cn1c(C(=O)N2CCc3ccccc3C2)cc2oc3ccccc3c21 -8.41%
Cc1onc(-c2ccccc2)c1C(=O)Nc1nnc(N(C)Cc2ccccc2)s1 -16.6%
O=C1c2ccccc2C(Nc2cccc(C(F)(F)F)c2)N1Cc1ccco1 (stereo not drawn) 0.2%
CCOC(=O)c1cc2c(ccn2C)n1Cc1ccccc1C 9.69%
O=c1c2cc3ccccc3n2cnn1Cc1ccccc1F 3.01%
CCOC(=O)c1cc2sccc2n1Cc1ccc(C#N)cc1 -10.3%
O=C(Nc1ccc(N2CCN(C(=O)c3ccco3)CC2)c(Cl)c1)c1c(F)c(F)c(F)c(F)c1F -3.01%
O=C(NCc1ccccc1)c1c[nH]c2ccc(S(=O)(=O)Nc3ccc4c(c3)OCCO4)cc2c1=O -5.14%

Random excerpt: 4 records from the list
Growth inhibition, inactive:
O=S(=O)(Nc1ccc(S(=O)(=O)N2CCCCC2)cc1)c1ccc(Br)s1 -0.13%
CCOC(=O)c1cc2sccc2n1Cc1ccc(C#N)cc1 -10.3%
CC(=O)c1sc(NC(=O)C2(F)C(F)(F)C(F)(F)C(F)(F)C(F)(F)C2(F)F)nc1C 15.7%
CCn1c(=O)c(C(=O)Nn2c(C)nc3ccccc3c2=O)c(O)c2ccccc21 2.63%
